PubChem BioAssay AID1259308, NCATS – 2017
Screen: 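Genes whose loss raises luciferase production in HEK293 cells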 (primary screen). System: human HEK293 embryonic kidney cells stably expressing firefly luciferase (HEK-CMV-Luc2-Hygro). Reagents: single siRNA against human genes, 0.8 pmol siRNA per well. Time to read-out: 72 h. Detection: 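Luciferase light (ONE-Glo) measured on one replicate plate set and viability (CellTiter-Glo) on the other, scaled to a negative control siRNA, with robust z-scores and luciferase per cell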. Scale: total luciferase, z-score: higher = more reporter protein produced. Rule for the call: 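Active when the median/MAD z-score for overall luciferase is greater than 3; a gene was taken forward for validation with new siRNAs if at least two of its three siRNAs passed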. Meaning of the calls: active = raised luciferase; inactive = no rise.
This is one part, drawn at random, of about 59,000 reagents tested. Over the whole deposit, about 1,510 (2.6%) got an active call. 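Calls use total luciferase alone and ignore viability, so some active siRNAs may act by altering cell number.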 Reagents against one gene are numbered here. Not all columns of the deposit are shown. No sequences are given here.

With LRPPRC #1, what was measured?
total luciferase, z-score: -0.244; activity call: inactive

Which result is listed for LRPPRC #2?
total luciferase, z-score: -0.996; activity call: inactive

What did the screen give for LRPPRC #3?
total luciferase, z-score: 0.178; activity call: inactive

With GPAM #1, what does the deposit list?
total luciferase, z-score: -0.207; activity call: inactive

What did the screen give for GPAM #2?
total luciferase, z-score: 2.68; activity call: inactive

How did the screen score GPAM #3?
total luciferase, z-score: -0.759; activity call: inactive

With AMDHD2 #1, what does the deposit list?
total luciferase, z-score: -1.29; activity call: inactive

How did the screen score AMDHD2 #2?
total luciferase, z-score: 0.646; activity call: inactive

With AMDHD2 #3, what does the deposit list?
total luciferase, z-score: 0.0528; activity call: inactive

How did the screen score RPEL1 #1?
total luciferase, z-score: -0.524; activity call: inactive

With RPEL1 #2, how do the results read?
total luciferase, z-score: 1.17; activity call: inactive

How did the screen score RPEL1 #3?
total luciferase, z-score: -0.238; activity call: inactive

For RPEL1 #4, how do the results read?
total luciferase, z-score: -1.93; activity call: inactive

With RPEL1 #5, what was measured?
total luciferase, z-score: -0.941; activity call: inactive

What did the screen give for RPEL1 #6?
total luciferase, z-score: -1.55; activity call: inactive

With DDX23 #1, what does the deposit list?
total luciferase, z-score: 0.186; activity call: inactive

With DDX23 #2, what was measured?
total luciferase, z-score: -3.16; activity call: inactive

For DDX23 #3, what does the deposit list?
total luciferase, z-score: 3.36; activity call: active

How did the screen score CLDN5 #1?
total luciferase, z-score: 0.624; activity call: inactive

What did the screen give for CLDN5 #2?
total luciferase, z-score: -0.108; activity call: inactive

Which result is listed for CLDN5 #3?
total luciferase, z-score: 3.64; activity call: active

What is on record for LCN2 #1?
total luciferase, z-score: 0.396; activity call: inactive

For LCN2 #2, what does the deposit list?
total luciferase, z-score: -0.345; activity call: inactive

With LCN2 #3, what was measured?
total luciferase, z-score: -0.529; activity call: inactive

With TBPL1 #1, how do the results read?
total luciferase, z-score: 0.0247; activity call: inactive

Which result is listed for TBPL1 #2?
total luciferase, z-score: -1.53; activity call: inactive

With TBPL1 #3, what does the deposit list?
total luciferase, z-score: 1.32; activity call: inactive

With CHRNA3 #1, what does the deposit list?
total luciferase, z-score: 1.47; activity call: inactive

How did the screen score CHRNA3 #2?
total luciferase, z-score: 1.1; activity call: inactive

What is on record for CHRNA3 #3?
total luciferase, z-score: -0.348; activity call: inactive

For ZNF833P #1, what was measured?
total luciferase, z-score: 0.51; activity call: inactive

What did the screen give for ZNF833P #2?
total luciferase, z-score: 0.28; activity call: inactive

Which result is listed for ZNF833P #3?
total luciferase, z-score: -0.251; activity call: inactive

Looked up above:
Result for LRPPRC #2 under “total luciferase, z-score”: -0.996
Entry of CHRNA3 #2 in “total luciferase, z-score”: 1.1
